PubChem BioAssay AID1224828 – NIAID – 2016
Here is an unselected part of about 17,000 deposited reagents. 762 of all reagents (4.5%) were called active. 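Active calls include both raised and lowered p65 entry, mostly lowered; wells with fewer than 50 cells lack a z-score.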 Raw values are not corrected between plates. Entries without a mark were called inactive.

- Screen: 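Find genes required for NF-kappaB p65 moving into the nucleus after LPS in mouse macrophages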 (primary screen)
- System: mouse RAW264.7 G9 macrophage reporter cells (GFP-p65, Tnf promoter-mCherry)
- Reagents: siRNA pool against mouse genes, 100 nM
- Timing: 2 days siRNA transfection, then 40 min LPS before fixation
- Conditions: LPS (Salmonella minnesota R595) at 10 ng/ml
- Detection: 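Imaged p65 nuclear translocation ratio, normalised to the plate median, converted to robust z-scores and averaged across two replicates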
- Reading the numbers: p65 translocation robust z-score: higher = more nuclear NF-kappaB p65 after LPS than the plate median; nuclear/cytoplasmic p65 ratio: higher = more nuclear NF-kappaB p65
- Active means: 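Called active when z exceeds 3.3 or falls under -1.56 (median of Tlr4 controls), giving activity score of at least 50; no calls for control wells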
- Calls: active = hit (p65 shift raised or lowered); inactive = no clear change

gene knocked down,PubChem SID,p65 translocation robust z-score,"nuclear/cytoplasmic p65 ratio, rep 1","nuclear/cytoplasmic p65 ratio, rep 2",low cell count flag
Xrcc2,SID315471787,0.47,1.6,1.55,enough cells to score
Cpsf1,SID315476070,1.86,1.68,2.27,enough cells to score
AI315068,SID315482024,-0.28,1.55,1.65,enough cells to score
Cbl,SID315465795,0.81,1.61,1.45,enough cells to score
Ucp2,SID315469922,-0.43,1.49,1.41,enough cells to score
Tirap,SID315477084,-1.14,1.44,1.28,enough cells to score
Psg23,SID315471708,0.94,1.46,1.35,enough cells to score
Vip,SID315470005,-0.89,1.27,1.46,enough cells to score
Mogat2,SID315479089,1.84,1.6,1.66,enough cells to score
Or8s5,SID315479972,1.37,1.71,1.6,enough cells to score
Cdcp3,SID315474231,0.49,1.37,1.58,enough cells to score
Cdx4,SID315465926,0.51,1.54,1.44,enough cells to score
4632404H12Rik,SID315474822,-0.15,1.26,1.25,enough cells to score
Pdxp,SID315471716,-0.34,1.34,1.43,enough cells to score
Psmg2,SID315476577,,1.05,1.2,fewer than 50 cells per well; well left out of scoring
Hr,SID315467293,-0.71,1.28,1.34,enough cells to score
Hoxd9,SID315467282,-0.04,1.36,1.44,enough cells to score
Slc34a3,SID315477161,,1.42,0.807,fewer than 50 cells per well; well left out of scoring
Zgrf1,SID315474266,0.8,1.36,1.39,enough cells to score
Adamtsl3,SID315480902,-0.27,1.65,1.52,enough cells to score
Stoml3,SID315478694,-0.82,1.34,1.11,enough cells to score
Tspyl4,SID315474560,,1.41,1.34,fewer than 50 cells per well; well left out of scoring
Krtap6-1,SID315467704,1.28,1.68,1.65,enough cells to score
Gdf7,SID315479384,-0.69,1.47,1.39,enough cells to score
Tfap2d,SID315478533,0.89,1.63,1.66,enough cells to score
Tnfrsf9,SID315469771,-0.36,1.48,1.46,enough cells to score
Col4a1,SID315466056,0.9,1.63,1.46,enough cells to score

A run of entries from the list above, for reference:
gene knocked down,PubChem SID,p65 translocation robust z-score,"nuclear/cytoplasmic p65 ratio, rep 1","nuclear/cytoplasmic p65 ratio, rep 2",low cell count flag
Adamtsl3,SID315480902,-0.27,1.65,1.52,enough cells to score
Stoml3,SID315478694,-0.82,1.34,1.11,enough cells to score
Tspyl4,SID315474560,,1.41,1.34,fewer than 50 cells per well; well left out of scoring
Krtap6-1,SID315467704,1.28,1.68,1.65,enough cells to score
Gdf7,SID315479384,-0.69,1.47,1.39,enough cells to score
Tfap2d,SID315478533,0.89,1.63,1.66,enough cells to score
Tnfrsf9,SID315469771,-0.36,1.48,1.46,enough cells to score

More entries follow:
gene knocked down,PubChem SID,p65 translocation robust z-score,"nuclear/cytoplasmic p65 ratio, rep 1","nuclear/cytoplasmic p65 ratio, rep 2",low cell count flag
Scp2,SID315469125,0.61,1.54,1.74,enough cells to score
Adgrl2,SID315476187,0.41,1.54,1.67,enough cells to score
Arpc4,SID315473405,-0.28,1.61,1.54,enough cells to score
Ces2a,SID315476308,-0.57,1.35,1.47,enough cells to score
Cox7c,SID315466086,0.06,1.53,1.85,enough cells to score
Fos,SID315466735,,1.27,1.23,fewer than 50 cells per well; well left out of scoring
Dbpht1 (retired record),SID315469436,-1.4,1.34,1.6,enough cells to score
Rmdn2,SID315481770,-1.07,1.33,1.47,enough cells to score
Ate1,SID315465532,-0.18,1.58,1.49,enough cells to score
Ece2,SID315476612,-0.19,1.39,1.37,enough cells to score
Ece2,SID315476613,0.41,1.52,1.69,enough cells to score
4833432B22RIK,SID315482012,,0,1.6,fewer than 50 cells per well; well left out of scoring
Nelfa,SID315470334,-0.62,1.42,1.51,enough cells to score
Reg3a,SID315468937,0.04,1.41,1.24,enough cells to score
Or8a1,SID315481961,-0.14,1.68,1.32,enough cells to score
Nap1l2,SID315468098,0.79,2.03,1.61,enough cells to score
A630052C17Rik,SID315481391,-0.57,1.26,1.49,enough cells to score
Polk,SID315470513,,1.81,1.39,fewer than 50 cells per well; well left out of scoring
Irag1,SID315467984,-0.45,1.33,1.33,enough cells to score
Bpifb6,SID315478659,0.82,1.35,1.64,enough cells to score
Or2t46,SID315479956,-2.66 (active),1.17,1.11,enough cells to score
Fam222b,SID315478060,0.02,1.54,1.9,enough cells to score
Pygb,SID315476869,0.8,1.52,1.28,enough cells to score
Mslnl,SID315481494,,1.26,1.21,fewer than 50 cells per well; well left out of scoring
Saraf,SID315473288,,1.7,1.67,fewer than 50 cells per well; well left out of scoring
Secisbp2l,SID315474020,,1.36,1.32,fewer than 50 cells per well; well left out of scoring
Ndufs8,SID315478445,-1.59 (active),1.16,1.21,enough cells to score
Fgfbp1,SID315466675,-0.81,1.3,1.3,enough cells to score
Aldh3b1,SID315473168,-0.66,1.51,1.53,enough cells to score
Lin9,SID315474580,0.93,1.52,1.58,enough cells to score
Efcab9,SID315473780,1.89,1.89,1.66,enough cells to score
Ppara,SID315468643,0.14,1.36,1.27,enough cells to score
